Patent US8003312B2, “Multiplex cellular assays using detectable cell barcodes” (The Board of Trustees of the Leland Stanford Junior …, priority 2007, dated 2011)
At least one compound was matched to its structure with a doubt left.

How the values were obtained:
[1] = test system: Stat1 and ERK phosphorylation; test: 96-well FCB drug screen in Jurkat cells: class of drug activity, pERK versus pStat1; assay type: cell-based, human; conditions: 20 μM, 45 min before stimulation with anti-CD3, anti-CD28 and IFN-γ for 5 min
[2] = test system: Stat signaling; test: Miniature drug screen and inhibitor titration in U937 cells: Stat signaling overall (pStat1, pStat3, pStat5); assay type: cell-based, human; conditions: 2 μM, added 30 min before stimulation with IFN-γ, IL-6 and GM-CSF
Method: FIG. 4. FCB of 36 samples increases throughput of phospho flow. (a) Efficient barcoding of 36 samples. U937 cells were left untreated or were stimulated with IFN-γ (10 ng/ml) for 10 min. Unstimulated and stimulated samples were added to a 96-well plate in an alternating pattern across each row and down each column and labeled with six concentrations of Pacific Blue-NHS (0, 0.15, 0.6, 2.5, 10 or 40 μg/ml) and/or Alexa 488-NHS (0, 0.07, 0.3, 1.3, 5 or 20 μg/ml). […] Reverse deconvolution (bottom panel) of all stimulated or unstimulated cells produced the expected checkerboard pattern. (b) Miniature drug screen and titration of inhibitors with FCB. U937 cells were treated with various drugs before stimulation with IFN-γ, IL-6 and GM-CSF (stimulation). WHI-P154 (WHI; 50 μM), PD98059 (PD; 20 μM), Jak inhibitor I (Jak-1; 5 μM), and wortmannin (Wort; 2 μM) were added to the cells 30 min before stimulation; samples were barcoded with Pacific Blue-NHS and simultaneously stained with pStat1 Alexa 488, pStat3 PE and pStat5 Alexa 647 (left three plots). Jak inhibitor I was added at 0.005, 0.05, 0.5 or 5 μM for 30 min before stimulation (middle). WHI-P154 was added at 0.1, 1, 10 or 100 μM for 30 min before stimulation (right). Non-drug-treated positive and negative controls are included within each FCB staining set, allowing for internal normalization of each staining cocktail. […]

SMILES | class of drug activity (selectivity, Stat1 versus ERK phosphorylation) [1] | effects on Stat signaling [2]
Oc1c2ccccc2c2c3c(cccc13)N=N2 [SP-600125] | to a lesser extent | 
COC[C@H]1OC(=O)c2coc3c2[C@@]1(C)C1=C(C3=O)[C@@H]2CCC(=O)[C@@]2(C)C[C@H]1OC(C)=O [Wortmannin, wortmannin] |  | no or minor effects
